In general, AC50 refers to the concentration at which the activity in the assay is half-maximal.

The other results are listed elsewhere or left out. The main result of the screen is listed elsewhere. These columns were measured beside it and carry no call. The list favours compounds with an active or inconclusive main result. Words in brackets tell the shape of the fitted curve; partial curves, single points and poor fits give uncertain potencies.

The nature of the assay: IkB Signaling. The note with it: ABC-DLBCL IkBa-CBG/CBR dual luciferase ratio (green luciferase fused to IkBa over red control in OCI-Ly3 lymphoma cells), 4 h; measured here: control luc red channel unless noted. Put shortly:
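Luminescence ratio of IκBα-fused green versus native red beetle luciferase in OCI-Ly3 cells, 4 h post-doxycycline with compound; red signal alone, scaled from basal (0%) to zero light (-100%), flagged nonspecific or cytotoxic effects.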
Turning to `COc1ccc(OC)c(NC(=O)CS(=O)(=O)Cc2nc(-c3ccc(C)cc3)oc2C)c1`, the AC50 is 12.6 µM [falling, partial curve].
As for `COc1ccc(CNC(=O)c2ccc(CS(=O)(=O)c3ccc(Br)cc3)o2)cc1`, the AC50 was 31.6 µM [falling, single point].
On to `CCCCOC(=O)c1ccc(Nc2nc3ccc(C(=O)c4ccccc4)cc3n3cnnc23)cc1`, for which the AC50 is 0.794 µM [rising, full curve, poor fit].
The figure for `CCOc1ccc(OCC)c(NC(=O)c2cc(-c3cccs3)nc3ccccc23)c1` is 0.316 µM [falling, partial curve]; for `O=C1CCSc2ccc(S(=O)(=O)Nc3cccc(C(F)(F)F)c3)cc2N1` it is 12.6 µM [falling, partial curve].
The figure for `O=c1c(N2CCN(c3cccc(Cl)c3)CC2)csc2ccc(Cl)cc12` is 12.6 µM [falling, partial curve, poor fit].
The same measure for `CSc1ccc(C2C(C#N)=C(N)Oc3c2ccc(=O)c2c(C)oc(C)c32)cc1` (configuration not stated): 7.94 µM [falling, partial curve]; for `CN(C)/C=C1/Nc2ccccc2C1=O`: 0.01 µM [falling, full curve, poor fit].
As to `CCc1ccc2occ(CC(=O)Nc3ccc(C)c(C)c3)c2c1`, the concentration at half-maximal activity (AC50) was 25.1 µM [falling, partial curve].
Consider `CCOC(=O)N1CCN(Cc2nc(N)nc(Nc3ccc(Oc4ccccc4)cc3)n2)CC1`, for which the AC50 was 10 µM [falling, partial curve].
The same measure for `Cc1sc2ncn(CC(=O)N3CCN(c4ccccc4)CC3)c(=O)c2c1S(=O)(=O)N1CCC(C)CC1`: 12.6 µM [falling, partial curve].
Turning to `O=C(CN1C(=O)CSc2ccc(S(=O)(=O)N3CCCC3)cc21)NCc1ccc(F)cc1Cl`, the AC50 was 39.8 µM [falling, single point].
The figure for `Cc1cccc(NC(=O)N2CC=C(c3c[nH]c4ccccc34)CC2)c1C` is 15.8 µM [falling, partial curve]; for `CCN(CC)C(=O)C1CCCN(c2ncnc3c2c(-c2ccccc2)cn3-c2cccc(C)c2)C1` (configuration not stated) it is 25.1 µM [falling, partial curve]; for `c1cncc(-c2nc(N3CCCCCC3)c3ccccc3n2)c1` it is 39.8 µM [falling, single point].
With `COCCOC(=O)C1=C(C)N=c2s/c(=C\c3cccs3)c(=O)n2C1c1cccs1` (configuration not stated), the half-maximal activity concentration (AC50) was 0.631 µM [falling, full curve].
The same measure for `Cc1cc(N2CCC(C)CC2)nc2ccc(NC(=O)CCC(=O)N3CCN(c4ccccc4F)CC3)cc12`: 12.6 µM [falling, partial curve].

The values above are taken from PubChem BioAssay AID445 (National Center for Advancing Translational Sciences (NCATS), 2006).
